PubChem BioAssay AID1671195 | Yale University | 2021
In all, the deposit lists about 22,000 reagents; shown is a part drawn at random. About 1,510 of all reagents (6.9%) count as active. 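Active includes knockdowns raising or lowering LDL uptake; positive z-scores mean more uptake, negative mean less.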 Unmarked entries are inactive.

- Purpose: 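Knockdowns that increase or decrease uptake of fluorescent LDL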 (primary screen)
- Cells: human Huh7 hepatoma cells
- Reagent: siRNA pool against human genes, 18 nM
- Timing: about 2 to 2.5 days of knockdown, then 8 h LDL uptake
- Challenge: DiI-labelled LDL at 30 µg/ml for 8 h, in lipoprotein-deficient serum medium
- Measurement: 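Fluorescent LDL signal imaged in cells, scaled to the plate median, robust z-score for each replicate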
- Reading the numbers: robust z-score: higher = more LDL uptake after knockdown
- Rule for the call: 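Active when two or more replicates show a robust z-score above 2 or below -2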

NYAP1: robust z-score, replicate 1 = -0.413; robust z-score, replicate 2 = 0.263; robust z-score, replicate 3 = -0.131
TRMT44: robust z-score, replicate 1 = 0.825; robust z-score, replicate 2 = 1.57; robust z-score, replicate 3 = 0.439
RPS26P35: robust z-score, replicate 1 = 1.25; robust z-score, replicate 2 = 0.521; robust z-score, replicate 3 = 0.662
VN2R9P: robust z-score, replicate 1 = -0.628; robust z-score, replicate 2 = -0.633; robust z-score, replicate 3 = -0.52
ANXA7: robust z-score, replicate 1 = 0.151; robust z-score, replicate 2 = -0.907; robust z-score, replicate 3 = -0.686
METTL3: robust z-score, replicate 1 = 0.042; robust z-score, replicate 2 = -0.176; robust z-score, replicate 3 = -0.0504
LOC442059 (retired record): robust z-score, replicate 1 = 0.827; robust z-score, replicate 2 = 0.672; robust z-score, replicate 3 = -0.267
OR5H2: robust z-score, replicate 1 = -0.567; robust z-score, replicate 2 = -0.524; robust z-score, replicate 3 = -0.157
FAM30A: robust z-score, replicate 1 = 0.407; robust z-score, replicate 2 = 1.38; robust z-score, replicate 3 = 0.418

Ordered by “robust z-score, replicate 1” (ascending): 2 of the entries above
METTL3: robust z-score, replicate 1 = 0.042; robust z-score, replicate 2 = -0.176; robust z-score, replicate 3 = -0.0504
ANXA7: robust z-score, replicate 1 = 0.151; robust z-score, replicate 2 = -0.907; robust z-score, replicate 3 = -0.686

More entries:
PRM2: robust z-score, replicate 1 = -2.23 (active); robust z-score, replicate 2 = -0.486; robust z-score, replicate 3 = -2.42
GAP43: robust z-score, replicate 1 = -0.821; robust z-score, replicate 2 = -0.0527; robust z-score, replicate 3 = -0.772
LOC440364 (retired record): robust z-score, replicate 1 = 1.63; robust z-score, replicate 2 = 2.51; robust z-score, replicate 3 = 1.64
RPE65: robust z-score, replicate 1 = 0.352; robust z-score, replicate 2 = 0.287; robust z-score, replicate 3 = 0.062
TRNT1: robust z-score, replicate 1 = 1.35; robust z-score, replicate 2 = 0.831; robust z-score, replicate 3 = 1.24
DDX27: robust z-score, replicate 1 = -0.665; robust z-score, replicate 2 = -0.453; robust z-score, replicate 3 = 0.0267
NMT2: robust z-score, replicate 1 = -0.857; robust z-score, replicate 2 = -0.0178; robust z-score, replicate 3 = -1.05
DLEC1: robust z-score, replicate 1 = -2.13; robust z-score, replicate 2 = -1.45; robust z-score, replicate 3 = 0.355
GMEB2: robust z-score, replicate 1 = -1.3; robust z-score, replicate 2 = -2.22; robust z-score, replicate 3 = -1.32
CTCFL: robust z-score, replicate 1 = -1.02; robust z-score, replicate 2 = -1.06; robust z-score, replicate 3 = -1.4
LINC00313: robust z-score, replicate 1 = 1.05; robust z-score, replicate 2 = 1.25; robust z-score, replicate 3 = 1.21
GPS1: robust z-score, replicate 1 = -2.2 (active); robust z-score, replicate 2 = -1.6; robust z-score, replicate 3 = -2.09
VTCN1: robust z-score, replicate 1 = 0.507; robust z-score, replicate 2 = 0.622; robust z-score, replicate 3 = 0.242
AASS: robust z-score, replicate 1 = 0.0337; robust z-score, replicate 2 = 0.746; robust z-score, replicate 3 = 0.882
CEP43: robust z-score, replicate 1 = 0.543; robust z-score, replicate 2 = 0.134; robust z-score, replicate 3 = 0.301
